PMC10627786
Results are given in words; binding and its absence hold for the method and conditions named. In cells and extracts the contact can be indirect. A yes stands for co-enrichment or nearness to the bait. Other partners may have been found. Sequences can lack the tags named with a protein.

Assays:
[1] = target: T1, SYNJ2BP fused with BirA*-FLAG (BioID bait) (human) (UniProt P57105); experiment: proximity labelling; BioID in stable inducible Flp-In T-REx 293 cells expressing BirA*-FLAG baits; mass spectrometry of biotinylated preys; SAINTexpress, two biological replicates per bait, 50 negative control runs, BFDR threshold 1%
T1 sequence: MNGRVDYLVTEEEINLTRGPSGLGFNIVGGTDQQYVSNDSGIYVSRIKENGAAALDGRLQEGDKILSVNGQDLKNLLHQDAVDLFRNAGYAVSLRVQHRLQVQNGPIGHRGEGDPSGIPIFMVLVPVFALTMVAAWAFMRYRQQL

[2] = target: T2, ESYT2 fused with BirA*-FLAG (BioID bait) (human) (UniProt A0FGR8); experiment: as above
T2 sequence: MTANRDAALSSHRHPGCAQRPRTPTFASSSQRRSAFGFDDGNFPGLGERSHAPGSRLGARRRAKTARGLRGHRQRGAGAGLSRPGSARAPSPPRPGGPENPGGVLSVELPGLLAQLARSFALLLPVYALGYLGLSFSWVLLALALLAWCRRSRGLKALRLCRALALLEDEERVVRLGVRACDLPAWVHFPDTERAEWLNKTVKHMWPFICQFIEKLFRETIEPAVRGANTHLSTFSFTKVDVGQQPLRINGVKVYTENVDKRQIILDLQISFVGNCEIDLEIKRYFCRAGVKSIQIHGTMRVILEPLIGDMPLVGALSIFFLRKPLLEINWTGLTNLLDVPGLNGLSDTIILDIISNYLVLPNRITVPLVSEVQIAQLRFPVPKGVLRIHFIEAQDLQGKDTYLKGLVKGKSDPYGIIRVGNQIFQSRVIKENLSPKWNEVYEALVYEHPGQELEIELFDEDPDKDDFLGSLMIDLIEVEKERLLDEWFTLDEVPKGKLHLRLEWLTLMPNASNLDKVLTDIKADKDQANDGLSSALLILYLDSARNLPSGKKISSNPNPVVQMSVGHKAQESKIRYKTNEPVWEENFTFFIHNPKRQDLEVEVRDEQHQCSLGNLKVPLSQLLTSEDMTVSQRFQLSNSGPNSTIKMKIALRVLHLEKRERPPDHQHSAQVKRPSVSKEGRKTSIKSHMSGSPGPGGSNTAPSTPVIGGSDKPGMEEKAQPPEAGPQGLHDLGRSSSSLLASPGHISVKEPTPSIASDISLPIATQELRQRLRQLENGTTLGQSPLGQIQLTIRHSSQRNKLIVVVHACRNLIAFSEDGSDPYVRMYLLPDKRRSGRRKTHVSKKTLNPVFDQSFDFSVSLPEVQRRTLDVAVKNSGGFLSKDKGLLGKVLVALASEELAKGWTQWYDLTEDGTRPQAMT

binding [1]: binds | binding [2]: binds
B1: ESYT1 (endogenous prey in BioID) (protein, UniProt Q9BSJ8 1-1104)
chain: MERSPGEGPSPSPMDQPSAPSDPTDQPPAAHAKPDPGSGGQPAGPGAAGEALAVLTSFGRRLLVLIPVYLAGAVGLSVGFVLFGLALYLGWRRVRDEKERSLRAARQLLDDEEQLTAKTLYMSHRELPAWVSFPDVEKAEWLNKIVAQVWPFLGQYMEKLLAETVAPAVRGSNPHLQTFTFTRVELGEKPLRIIGVKVHPGQRKEQILLDLNISYVGDVQIDVEVKKYFCKAGVKGMQLHGVLRVILEPLIGDLPFVGAVSMFFIRRPTLDINWTGMTNLLDIPGLSSLSDTMIMDSIAAFLVLPNRLLVPLVPDLQDVAQLRSPLPRGIIRIHLLAARGLSSKDKYVKGLIEGKSDPYALVRLGTQTFCSRVIDEELNPQWGETYEVMVHEVPGQEIEVEVFDKDPDKDDFLGRMKLDVGKVLQASVLDDWFPLQGGQGQVHLRLEWLSLLSDAEKLEQVLQWNWGVSSRPDPPSAAILVVYLDRAQDLPLKKGNKEPNPMVQLSIQDVTQESKAVYSTNCPVWEEAFRFFLQDPQSQELDVQVKDDSRALTLGALTLPLARLLTAPELILDQWFQLSSSGPNSRLYMKLVMRILYLDSSEICFPTVPGCPGAWDVDSENPQRGSSVDAPPRPCHTTPDSQFGTEHVLRIHVLEAQDLIAKDRFLGGLVKGKSDPYVKLKLAGRSFRSHVVREDLNPRWNEVFEVIVTSVPGQELEVEVFDKDLDKDDFLGRCKVRLTTVLNSGFLDEWLTLEDVPSGRLHLRLERLTPRPTAAELEEVLQVNSLIQTQKSAELAAALLSIYMERAEDLPLRKGTKHLSPYATLTVGDSSHKTKTISQTSAPVWDESASFLIRKPHTESLELQVRGEGTGVLGSLSLPLSELLVADQLCLDRWFTLSSGQGQVLLRAQLGILVSQHSGVEAHSHSYSHSSSSLSEEPELSGGPPHITSSAPELRQRLTHVDSPLEAPAGPLGQVKLTLWYYSEERKLVSIVHGCRSLRQNGRDPPDPYVSLLLLPDKNRGTKRRTSQKKRTLSPEFNERFEWELPLDEAQRRKLDVSVKSNSSFMSRERELLGKVQLDLAETDLSQGVARWYDLMDNKDKGSS
